Among the data in PMC5847153 are binding values, retold here.

The target of this assay is 2xFLAGbio-Sox2, P48432. The assay can be described thus: co-IP; HEK cells co-transfected, total cell extracts in carin buffer (20 mM Tris pH8, 137 mM NaCl, 10 mM EDTA, 1% NP40, 10% glycerol), antibodies against myc or FLAG, protein G beads, 4 °C, western blot. To be noted: remark: other sources report otherwise. Background: A western blot detects proteins with antibodies after separation by electrophoresis.

No constants are given. Whether binding was seen depends on the method and setting. In cells and extracts the contact can be indirect. Some entries that bind do so weakly or less than the wild type. Tags and fused reporters may be left off the sequences shown.

B1: myc-tagged TCF3, Q9Z1J1 1-584 (protein)
chain: MPQLGGGRGGAGGGGGGSGAGATSGGDDLGANDELIPFQDEGGEEQEPSSDTASAQRDLDEVKSSLVNESENQSSSSDSEAERRPQPARDAFQKPRDYFAEVRRPQDGAFFKGGAYPGYPFLMIPDLSSPYLSNGPLSPGGARTYLQMKWPLLDVPSSATVKDTRSPSPAHLSNKVPVVQHPHHMHPLTPLITYSNDHFSPASPPTHLSPEIDPKTGIPRPPHPSELSPYYPLSPGAVGQIPHPLGWLVPQQGQPMYSLPPGGFRHPYPALAMNASMSSLVSSRFPHMVAPAHPGLPTSGIPHPAIVSPIVKQEPAAPSLSPAVSAKSPVTVKKEEEKKPHVKKPLNAFMLYMKEMRAKVVAECTLKESAAINQILGRKWHNLSREEQAKYYELARKERQLHAQLYPTWSARDNYGKKKKRKREKQLSQTQSQQQIQEAEGALASKSKKPCIQYLPPEKPCDSPASSHGSALDSPATPSAALASPAAPAATHSEQAQPLSLTTKPEARAQLALHSAAFLSAKAAASNSSQMGSQPPLLSRPLPLGSMPAALLTSPPTFPATLHAHQALPVLQAQPLSLVTKSAH
On to B1, for which the binding result is “binds”.
